Data taken from PubChem BioAssay AID504749, deposited by NCATS (2011).

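A panel of P. falciparum strains inside erythrocytes is exposed to compounds for three days, then a DNA-binding dye reports the amount of parasite DNA. Each compound was titrated across a series from about 0.000037 to 29 µM. The number is the fitted AC50, the concentration giving a half-maximal change in signal; a lower value means higher potency, whether the curve shows a decrease or an increase. Calls follow the curve class and fit quality: every row here is inconclusive, covering signal-raising curves and weak, poorly fitted, partial or highest-dose-only inhibition curves.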

Values are in µM. All entries here are filed as inconclusive. Only part of the assay is shown, chiefly results filed as inconclusive. Potencies fitted to partial, single-point or poorly fitting curves are rough. Some entries filed as inconclusive have a full curve.

{"compound": "O=c1[nH]cc(F)c(=O)[nH]1", "tested on / at": "PC15", "Potency (µM)": "10", "curve as filed": "inhibitor, single point"}
{"compound": "O=c1[nH]cc(F)c(=O)[nH]1", "tested on / at": "CP260", "Potency (µM)": "11.22", "curve as filed": "inhibitor, single point"}
{"compound": "O=c1[nH]cc(F)c(=O)[nH]1", "tested on / at": "CP194", "Potency (µM)": "19.01", "curve as filed": "inhibitor, single point"}
{"compound": "O=c1[nH]cc(F)c(=O)[nH]1", "tested on / at": "CP305", "Potency (µM)": "13.46", "curve as filed": "inhibitor, single point"}
{"compound": "O=c1[nH]cc(F)c(=O)[nH]1", "tested on / at": "CP286", "Potency (µM)": "17.78", "curve as filed": "inhibitor, single point"}
{"compound": "O=c1[nH]cc(F)c(=O)[nH]1", "tested on / at": "CP250", "Potency (µM)": "2.818", "curve as filed": "inhibitor, partial curve"}
{"compound": "O=c1[nH]cc(F)c(=O)[nH]1", "tested on / at": "CP269", "Potency (µM)": "19.01", "curve as filed": "inhibitor, single point"}
{"compound": "O=c1[nH]cc(F)c(=O)[nH]1", "tested on / at": "AA1029", "Potency (µM)": "15.85", "curve as filed": "inhibitor, single point"}
{"compound": "O=c1[nH]cc(F)c(=O)[nH]1", "tested on / at": "CP268", "Potency (µM)": "15.1", "curve as filed": "inhibitor, single point"}
{"compound": "Cc1ccccc1N1C(=O)c2cc(N)ccc2N/C1=C\\F", "tested on / at": "DIV14", "Potency (µM)": "15.1", "curve as filed": "inhibitor, partial curve, poor fit"}
{"compound": "Cc1ccccc1N1C(=O)c2cc(N)ccc2N/C1=C\\F", "tested on / at": "W2", "Potency (µM)": "16.94", "curve as filed": "inhibitor, single point"}
{"compound": "Cc1ccccc1N1C(=O)c2cc(N)ccc2N/C1=C\\F", "tested on / at": "ICS", "Potency (µM)": "17.78", "curve as filed": "inhibitor, single point"}
{"compound": "Cc1ccccc1N1C(=O)c2cc(N)ccc2N/C1=C\\F", "tested on / at": "DIV17", "Potency (µM)": "19.01", "curve as filed": "inhibitor, partial curve, poor fit"}
{"compound": "CCC[C@H]1C[C@H](C(=O)N[C@@H]([C@H]2O[C@@H](SC)[C@@H](O)[C@@H](O)[C@@H]2O)[C@H](C)Cl)N(C)C1", "tested on / at": "P93_24", "Potency (µM)": "0.0398", "curve as filed": "inhibitor, full curve"}
{"compound": "CCC[C@H]1C[C@H](C(=O)N[C@@H]([C@H]2O[C@@H](SC)[C@@H](O)[C@@H](O)[C@@H]2O)[C@H](C)Cl)N(C)C1", "tested on / at": "CP191", "Potency (µM)": "0.1122", "curve as filed": "inhibitor, full curve"}
{"compound": "CCC[C@H]1C[C@H](C(=O)N[C@@H]([C@H]2O[C@@H](SC)[C@@H](O)[C@@H](O)[C@@H]2O)[C@H](C)Cl)N(C)C1", "tested on / at": "DIV14", "Potency (µM)": "0.12", "curve as filed": "inhibitor, partial curve, poor fit"}
{"compound": "CCC[C@H]1C[C@H](C(=O)N[C@@H]([C@H]2O[C@@H](SC)[C@@H](O)[C@@H](O)[C@@H]2O)[C@H](C)Cl)N(C)C1", "tested on / at": "CP203", "Potency (µM)": "0.1069", "curve as filed": "inhibitor, full curve"}
{"compound": "CCC[C@H]1C[C@H](C(=O)N[C@@H]([C@H]2O[C@@H](SC)[C@@H](O)[C@@H](O)[C@@H]2O)[C@H](C)Cl)N(C)C1", "tested on / at": "GB4", "Potency (µM)": "0.1901", "curve as filed": "inhibitor, full curve"}
{"compound": "CCC[C@H]1C[C@H](C(=O)N[C@@H]([C@H]2O[C@@H](SC)[C@@H](O)[C@@H](O)[C@@H]2O)[C@H](C)Cl)N(C)C1", "tested on / at": "FAB9", "Potency (µM)": "0.3548", "curve as filed": "inhibitor, full curve"}
{"compound": "CCC[C@H]1C[C@H](C(=O)N[C@@H]([C@H]2O[C@@H](SC)[C@@H](O)[C@@H](O)[C@@H]2O)[C@H](C)Cl)N(C)C1", "tested on / at": "CP237", "Potency (µM)": "0.0447", "curve as filed": "inhibitor, full curve"}